# Data taken from the supplement of paper PMC3334620.
# Whole data set: some 33,000 sequences, median “E-score (-0.5 to 0.5)” near -0.015, cut for the highest 2% near 0.3. This is one part of the list.
# Target: T1, Abf1 (UniProt P14164)
# T1 sequence: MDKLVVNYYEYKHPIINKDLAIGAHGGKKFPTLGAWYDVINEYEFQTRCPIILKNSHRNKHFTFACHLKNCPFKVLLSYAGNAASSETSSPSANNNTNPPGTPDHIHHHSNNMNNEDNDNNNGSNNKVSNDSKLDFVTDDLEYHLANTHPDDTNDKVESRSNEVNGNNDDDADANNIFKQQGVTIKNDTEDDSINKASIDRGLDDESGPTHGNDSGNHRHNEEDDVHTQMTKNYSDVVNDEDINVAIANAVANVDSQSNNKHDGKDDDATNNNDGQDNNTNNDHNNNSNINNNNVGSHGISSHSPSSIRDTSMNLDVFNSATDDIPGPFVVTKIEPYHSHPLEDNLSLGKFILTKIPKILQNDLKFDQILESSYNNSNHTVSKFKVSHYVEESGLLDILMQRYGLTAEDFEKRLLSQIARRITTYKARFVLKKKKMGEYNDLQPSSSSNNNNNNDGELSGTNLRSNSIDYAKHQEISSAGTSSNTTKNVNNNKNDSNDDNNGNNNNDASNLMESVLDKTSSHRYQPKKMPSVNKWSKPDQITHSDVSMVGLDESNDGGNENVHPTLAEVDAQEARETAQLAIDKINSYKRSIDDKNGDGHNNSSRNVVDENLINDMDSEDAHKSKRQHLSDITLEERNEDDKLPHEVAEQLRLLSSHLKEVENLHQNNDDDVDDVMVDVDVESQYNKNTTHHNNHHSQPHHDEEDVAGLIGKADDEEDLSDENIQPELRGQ
# Test: PBM E-score (8-mer binding enrichment) (E-score (-0.5 to 0.5)); higher = stronger / more preferred TF binding
# Conditions: protein concentration: 200 nM; construct: GST-full length
# Procedure: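 Universal 'all 10-mer' protein binding microarrays (Agilent AMADID 015681) probed with GST-tagged S. cerevisiae TFs (full-length or DBD) made by in vitro transcription/translation (PURExpress), about 100-200 nM. Bound TF was detected with fluorescent anti-GST. Each ungapped 8-mer (which stands for itself and its reverse complement) is scored by the PBM enrichment score (E-score), a modified Wilcoxon-Mann-Whitney statistic from -0.5 to +0.5, computed with the Universal PBM Analysis Suite. Scale: above 0.35 generally sequence-specific binding.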
row,Sequence,PBM E-score
1,ACCACTGA,-0.163
2,CGTGTATC,0.0937
3,CCCCCTAC,-0.27
4,CCAATGAA,-0.015
5,GGAACCGA,-0.0196
6,CGCCCGGC,-0.161
7,AGGGCGTG,-0.117
8,CCCTCGTA,0.126
9,AGTATATG,0.0541
10,CATTGACA,-0.105
11,AACGCCAT,-0.0389
12,CCAACGCG,-0.128
13,CTGCATGA,-0.00665
14,AACGACGT,0.19
15,CACGAAGG,0.179
16,ATGACCAT,0.0632
17,CATCACAG,-0.0365
18,CCCCTAAC,-0.121
19,CCCGGCGA,-0.174
20,GAAGCGGA,-0.207
21,AGGACTAT,-0.28
22,GAGCAAAC,0.0213
23,CTATCTTC,0.115
24,GCAAACGA,0.239
25,ACGCGAGA,-0.145

row,Sequence,PBM E-score
1,AATTTTCG,0.111
2,AGGACAAG,-0.0635
3,GGCTACAC,-0.275
4,CACAGCAC,0.0916
5,ACAAGTAC,-0.105
6,GACAGGTA,-0.116
7,AGGGAGAG,-0.19
8,AAAGACGA,0.201
9,GGATCGCC,0.0808
10,GGATCAAA,0.0154
11,CCGGGACC,-0.271
12,AAGACCAT,-0.119
13,GAAGGGAC,-0.192
14,ATGTTTCA,-0.0473
15,CCTATAGA,-0.0595
16,CCCCGAAG,-0.236
17,AAGCTGAT,0.176
18,GAGATCAA,0.109
19,CGTATATA,0.357
20,CTCACAAG,0.0693
21,ATCCATGG,-0.154
22,CTAAATCC,0.0568
23,GCTTGTAA,0.0117
24,AGTTCTCC,-0.295
25,AACGCTAA,-0.137

row,Sequence,PBM E-score
1,CTTTGGTC,0.114
2,CGGGATTC,0.117
3,CATTGAGG,-0.0111
4,AGCACTAA,0.154
5,AGGTAGGC,-0.222
6,CACGTCGA,0.0691
7,CCTTGGTA,0.00383
8,AGAGTCCG,-0.126
9,AGAGTTCC,-0.159
10,ACCTTGTC,-0.0599
11,ACTCCGTG,-0.00947
12,GATATACA,0.111
13,GACCATCC,-0.116
14,CGAGGTCC,-0.125
15,AAACCTCT,-0.176
16,ATTCCATG,-0.0717
17,CTATGCCC,-0.161
18,ATTACGCA,0.14
19,AAACTGGG,-0.289
20,ATGCATTG,-0.0288
21,AGGGGCCG,-0.283
22,CTCCTAAG,-0.278
23,GGGTGATA,0.38
24,CCGATAAA,0.0459
25,CACAGACA,0.0762

row,Sequence,PBM E-score
1,AACAGGTC,-0.0458
2,ATGAAAAC,0.0592
3,TGACAGAA,0.188
4,ACTACACA,0.0566
5,CAGATGGA,0.00822
6,CGCGATAA,0.275
7,GCACTATA,0.017
8,AACGACCC,0.0599
9,ATGTCTGC,-0.0313
10,TCGCGTCA,0.033
11,CCCGGAGC,-0.202
12,GTCCATTA,0.144
13,GCACACCA,-0.138
14,ATTCTTCC,-0.152
15,CCCACTCC,-0.263
16,AAGCCACA,-0.0117
17,CATCTCCG,0.00984
18,CCGCCATA,-0.072
19,ATCGGGCA,0.126
20,ACATTCAT,0.109
21,AGCCAGGA,-0.0571
22,CGGTGGTC,-0.0612
23,TCAAACCA,0.136
24,ACCAGCAG,-0.125
25,CACTCTAC,0.178

row,Sequence,PBM E-score
1,GCGGAGCC,-0.0789
2,GTATTAGA,0.206
3,TGCAACAA,0.0357
4,GGCTCACC,-0.197
5,CATGCTAG,-0.00334
6,ATACCACC,0.0401
7,CATATGTC,0.0792
8,ATAAGATG,0.201
9,GCTCAAAA,-0.0054
10,ACTTGGGA,-0.141
11,AATTCAAG,-0.0702
12,CTTGCTCC,-0.00563
13,GTCGACTA,0.0964
14,GGTTCTAC,-0.00083
15,CTCTATCC,-0.0626
16,GGCATGCC,-0.0767
17,TTATTAAA,0.116
18,CTCATGCA,0.0123
19,CATGCTGC,-0.117
20,CTGATAGA,0.0446
21,AAAGACCT,-0.0826
22,AGATTCGA,-0.0332
23,GATTGATA,0.00544
24,ATTTTCTC,0.0904
25,AGTAGCCA,-0.0787

row,Sequence,PBM E-score
1,CTCAAGTC,0.0472
2,AACGGGGC,-0.0372
3,CCCTTATA,-0.0912
4,AAGGAAAG,-0.135
5,CGTAGTCC,-0.0426
6,AAGGTGCA,-0.0988
7,AATATGGT,0.121
8,ATAGGACC,-0.195
9,AAACGCCA,-0.0437
10,CTTGTGAA,0.0464
11,AACGTCAA,0.173
12,GATGGGCA,-0.0389
13,GGTTCCTA,-0.115
14,ACAAGAGG,-0.239
15,ACAGTCCA,-0.116
16,TAATGCTA,0.125
17,CAAGTCAA,-0.0911
18,GTGGCTCA,-0.195
19,AGCTTGAG,-0.1
20,CCGCGGCA,-0.0823
21,CAACCATG,-0.122
22,AAAGCACC,0.0912
23,ATCTGTGA,0.154
24,CGTATGAG,0.189
25,CGCTTCCC,-0.1

# Looked up above:
# For PBM E-score, GTCGACTA has the entry 0.0964
# For PBM E-score, CTCATGCA has the entry 0.0123
# For PBM E-score, AGGGCGTG has the entry -0.117
# For PBM E-score, AACGGGGC has the entry -0.0372

# The listing continues.

row,Sequence,PBM E-score
1,TAGTAGCA,0.0359
2,AAAATCTG,0.1
3,ATCTCCAG,0.0729
4,CCTCTCCC,-0.261
5,ATCGATGA,0.255
6,CGTAAGGA,0.107
7,AGAGTTCG,0.134
8,GTGACGTA,0.296
9,AGTTCCAG,-0.159
10,CCTCAGAA,-0.0676
11,CACTGATA,-0.056
12,CAGGCCTA,-0.0367
13,AGTGCCGC,-0.161
14,ACCTACGA,0.145
15,CCAGTCGC,-0.12
16,CCCCAACA,-0.245
17,GCACAAAC,-0.167
18,CCTGAAGG,-0.266
19,CGCCCCGA,-0.169
20,AGGTTAAG,-0.128
21,GATGGGAA,-0.127
22,CAGACGCA,-0.202
